Laboratory results from patent US20100266604A1, “USE OF TAM RECEPTOR INHIBITORS AS IMMUNOENHANCERS AND TAM ACTIVATORS AS IMMUNOSUPPRESSORS” (The Salk Institute for Biological Studies, priority 2007, published 2010).
No constants are given. Whether binding was seen depends on the method and setting. In cells and extracts the contact can be indirect. Some entries that bind do so weakly or less than the wild type. Values belong to the binder of their own block, whether it stands above or below them.

Columns and labels:
[1] = biological target: T1, R1 chain of the type I IFN receptor (mouse, endogenous in BM-DCs) (mouse) (UniProt P33896); assay: co-immunoprecipitation from BM-DC lysates, untreated or treated with 50 nM Gas6 for 20 min; immunoblot
T1 sequence (looked up): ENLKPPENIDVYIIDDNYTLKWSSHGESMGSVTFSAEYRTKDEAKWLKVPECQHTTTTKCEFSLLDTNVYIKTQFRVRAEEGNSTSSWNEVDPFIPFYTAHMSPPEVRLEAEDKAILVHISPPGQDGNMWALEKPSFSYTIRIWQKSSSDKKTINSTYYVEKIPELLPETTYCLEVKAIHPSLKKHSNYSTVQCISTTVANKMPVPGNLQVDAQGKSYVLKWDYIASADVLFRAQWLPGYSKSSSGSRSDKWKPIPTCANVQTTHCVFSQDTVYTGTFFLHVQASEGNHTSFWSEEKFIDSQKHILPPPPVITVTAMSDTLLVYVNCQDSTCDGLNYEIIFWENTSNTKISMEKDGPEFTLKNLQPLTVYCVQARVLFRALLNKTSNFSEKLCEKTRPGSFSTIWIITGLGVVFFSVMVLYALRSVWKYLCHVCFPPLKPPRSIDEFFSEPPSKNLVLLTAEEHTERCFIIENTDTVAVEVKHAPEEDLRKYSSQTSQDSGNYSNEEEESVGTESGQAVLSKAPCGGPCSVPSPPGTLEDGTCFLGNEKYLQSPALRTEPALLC

[2] = biological target: T1, R1 chain of the type I IFN receptor (mouse, endogenous in BM-DCs) (mouse); assay: reciprocal co-immunoprecipitation (IP of Axl, blot with anti-IFNAR1) from BM-DC lysates
[3] = biological target: T1, R1 chain of the type I IFN receptor (mouse, endogenous in BM-DCs) (mouse); assay: co-immunoprecipitation from BM-DC lysates (FIG. 4J), as summarised in the discussion
[4] = biological target: T1, R1 chain of the type I IFN receptor (mouse, endogenous in BM-DCs) (mouse); assay: co-immunoprecipitation from BM-DC lysates (FIG. 4J), as summarised in Example 9
IFNAR2 (mouse) = biological target: T2, IFNAR2 (mouse) (UniProt O35664); assay: co-immunoprecipitation from BM-DC whole cell lysates, untreated (-) or treated 20 min with 50 nM Gas6 (+); IP with antibody to the IFN receptor R2 chain, immunoblot for STAT1; the association may be direct or indirect
T2 sequence (receptor chain, looked up): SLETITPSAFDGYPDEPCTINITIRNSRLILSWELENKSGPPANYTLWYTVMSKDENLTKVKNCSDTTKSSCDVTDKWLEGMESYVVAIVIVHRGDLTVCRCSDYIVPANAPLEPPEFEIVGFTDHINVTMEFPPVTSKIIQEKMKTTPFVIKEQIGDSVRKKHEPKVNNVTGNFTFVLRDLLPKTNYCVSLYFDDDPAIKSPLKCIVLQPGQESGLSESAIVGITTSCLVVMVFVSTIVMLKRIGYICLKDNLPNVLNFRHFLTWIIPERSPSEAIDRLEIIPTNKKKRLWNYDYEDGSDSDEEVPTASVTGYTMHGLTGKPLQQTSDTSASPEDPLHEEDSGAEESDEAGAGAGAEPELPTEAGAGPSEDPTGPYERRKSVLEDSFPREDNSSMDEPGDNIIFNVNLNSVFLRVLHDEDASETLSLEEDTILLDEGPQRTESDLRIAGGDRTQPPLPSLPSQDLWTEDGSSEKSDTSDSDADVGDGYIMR

binding [1]: binds | binding [2]: binds | binding [3]: binds | binding [4]: binds
B1: Axl (mouse, endogenous in bone marrow-derived dendritic cells) (receptor, UniProt Q00993 19-888, looked up)
chain: AHKDTQTEAGSPFVGNPGNITGARGLTGTLRCELQVQGEPPEVVWLRDGQILELADNTQTQVPLGEDWQDEWKVVSQLRISALQLSDAGEYQCMVHLEGRTFVSQPGFVGLEGLPYFLEEPEDKAVPANTPFNLSCQAQGPPEPVTLLWLQDAVPLAPVTGHSSQHSLQTPGLNKTSSFSCEAHNAKGVTTSRTATITVLPQRPHHLHVVSRQPTELEVAWTPGLSGIYPLTHCNLQAVLSDDGVGIWLGKSDPPEDPLTLQVSVPPHQLRLEKLLPHTPYHIRISCSSSQGPSPWTHWLPVETTEGVPLGPPENVSAMRNGSQVLVRWQEPRVPLQGTLLGYRLAYRGQDTPEVLMDIGLTREVTLELRGDRPVANLTVSVTAYTSAGDGPWSLPVPLEPWRPGQGQPLHHLVSEPPPRAFSWPWWYVLLGALVAAACVLILALFLVHRRKKETRYGEVFEPTVERGELVVRYRVRKSYSRRTTEATLNSLGISEELKEKLRDVMVDRHKVALGKTLGEGEFGAVMEGQLNQDDSILKVAVKTMKIAICTRSELEDFLSEAVCMKEFDHPNVMRLIGVCFQGSDREGFPEPVVILPFMKHGDLHSFLLYSRLGDQPVFLPTQMLVKFMADIASGMEYLSTKRFIHRDLAARNCMLNENMSVCVADFGLSKKIYNGDYYRQGRIAKMPVKWIAIESLADRVYTSKSDVWSFGVTMWEIATRGQTPYPGVENSEIYDYLRQGNRLKQPVDCLDGLYALMSRCWELNPRDRPSFAELREDLENTLKALPPAQEPDEILYVNMDEGGSHLEPRGAAGGADPPTQPDPKDSCSCLTAADVHSAGRYVLCPSTAPGPTLSADRGCPAPPGQEDGA

binding (IFNAR2 (mouse)): binds
B2: STAT1 (protein, mouse, UniProt P42225 2-749, looked up)
transcription factor: SQWFELQQLDSKFLEQVHQLYDDSFPMEIRQYLAQWLEKQDWEHAAYDVSFATIRFHDLLSQLDDQYSRFSLENNFLLQHNIRKSKRNLQDNFQEDPVQMSMIIYNCLKEERKILENAQRFNQAQEGNIQNTVMLDKQKELDSKVRNVKDQVMCIEQEIKTLEELQDEYDFKCKTSQNREGEANGVAKSDQKQEQLLLHKMFLMLDNKRKEIIHKIRELLNSIELTQNTLINDELVEWKRRQQSACIGGPPNACLDQLQTWFTIVAETLQQIRQQLKKLEELEQKFTYEPDPITKNKQVLSDRTFLLFQQLIQSSFVVERQPCMPTHPQRPLVLKTGVQFTVKSRLLVKLQESNLLTKVKCHFDKDVNEKNTVKGFRKFNILGTHTKVMNMEESTNGSLAAELRHLQLKEQKNAGNRTNEGPLIVTEELHSLSFETQLCQPGLVIDLETTSLPVVVISNVSQLPSGWASILWYNMLVTEPRNLSFFLNPPCAWWSQLSEVLSWQFSSVTKRGLNADQLSMLGEKLLGPNAGPDGLIPWTRFCKENINDKNFSFWPWIDTILELIKNDLLCLWNDGCIMGFISKERERALLKDQQPGTFLLRFSESSREGAITFTWVERSQNGGEPDFHAVEPYTKKELSAVTFPDIIRNYKVMAAENIPENPLKYLYPNIDKDHAFGKYYSRPKEAPEPMELDDPKRTGYIKTELISVSEVHPSRLQTTDNLLPMSPEEFDEMSRIVGPEFDSMMSTV
